Test results published in patent US20260217781A1, “PEPTIDE CONJUGATES FOR LABELLING […] AND GLP-1R” (priority 2022, published 2026).
At least one peptide structure holds a part that was inferred or is arguable (an end, a ring closure or a residue). Non-standard residues stand in square brackets, D forms with d. Residues, ends and D or L forms follow the SMILES beside them. No end group written: not given here. *: point of attachment. X2 = C[N+]1=C(/C=C/C=C/C=C2/N(CCCCCC(=O)NCCN3C(=O)CC(*)C3=O)c3ccccc3C2(C)C)C(C)(C)c2ccccc21; X1 = C[N+]1=C(/C=C/C=C2/N(CCCCCC(=O)NCCN3C(=O)CC(*)C3=O)c3ccccc3C2(C)C)C(C)(C)c2ccccc21; Aib = CC(C)(N)C(=O)O

Amino acid sequences for entries named in this document (tags omitted). Residues count along the entry.
UniProt P43220, 24-463: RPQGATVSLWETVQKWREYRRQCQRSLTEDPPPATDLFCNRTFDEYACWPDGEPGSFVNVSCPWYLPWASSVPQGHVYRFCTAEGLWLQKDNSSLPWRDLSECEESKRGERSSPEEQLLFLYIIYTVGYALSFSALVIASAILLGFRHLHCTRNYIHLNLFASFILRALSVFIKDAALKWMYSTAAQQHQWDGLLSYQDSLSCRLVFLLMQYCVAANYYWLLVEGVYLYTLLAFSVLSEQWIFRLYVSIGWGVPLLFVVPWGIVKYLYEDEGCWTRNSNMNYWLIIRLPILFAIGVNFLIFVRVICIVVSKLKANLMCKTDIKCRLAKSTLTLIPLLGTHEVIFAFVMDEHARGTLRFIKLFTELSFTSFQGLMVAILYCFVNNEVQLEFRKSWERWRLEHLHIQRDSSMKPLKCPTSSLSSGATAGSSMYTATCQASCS

Experiments:
Format in all cases: cell-based
GIPR [1] = target: T1, GIPR (Mus musculus, UniProt Q0P543); test: Labelling of beta cells in Mip-Cre versus Gipr-/-βcell islets; settings: beta cells identified using LUX551 or LUX645
T1 construct: from tissue; host or cells: live pancreatic islets of Langerhans (wild-type, Mip-Cre, GIPR-GCAMP3 reporter)
T1 sequence (Q0P543 19-460): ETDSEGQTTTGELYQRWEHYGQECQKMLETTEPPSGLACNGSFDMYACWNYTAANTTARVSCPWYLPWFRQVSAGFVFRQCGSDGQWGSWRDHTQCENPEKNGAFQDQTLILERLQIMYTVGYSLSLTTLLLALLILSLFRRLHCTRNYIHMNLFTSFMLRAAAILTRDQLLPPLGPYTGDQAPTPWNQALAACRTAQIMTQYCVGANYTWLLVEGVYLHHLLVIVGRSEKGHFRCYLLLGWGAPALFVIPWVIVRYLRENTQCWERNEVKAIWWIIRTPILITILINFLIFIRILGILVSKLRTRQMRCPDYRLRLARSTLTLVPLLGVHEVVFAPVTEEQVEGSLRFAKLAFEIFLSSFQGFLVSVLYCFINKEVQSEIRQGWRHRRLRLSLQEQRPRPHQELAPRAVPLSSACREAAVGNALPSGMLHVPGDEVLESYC

endogenous GIPR = target: T2, endogenous GIPR (Mus musculus, UniProt Q0P543); test: Live confocal imaging of islets labelled with sGIP probes and LUXendin GLP1R probes; settings: for labelling of GIPR+ cells and GIPR+ GLP1R+ cells in islets: FIG. 7, islets; for labelling of endogenous GIPR in islets: wild-type and GLP1R^SNAP/SNAP islets, live imaging, LUXendin counter-stain
T2 construct: from tissue; host or cells: live pancreatic islets of Langerhans (wild-type, Mip-Cre, GIPR-GCAMP3 reporter)
T2 sequence (Q0P543 19-460): T1 sequence (Q0P543 19-460)

GIPR [2] = target: T1, GIPR; test: Labelling of GIPR-GCAMP3 reporter islets; settings: n=11-12 islets, 2 animals
SNAP-GIPR = target: T3, SNAP-GIPR (Homo sapiens, UniProt P48546); test: Epifluorescent microscopy of HEK293T cells transfected with SNAP-GIPR; settings: counter-labelling of SNAP
T3 construct: expressed in transfected cells; host or cells: HEK293T
T3 sequence (P48546 22-466): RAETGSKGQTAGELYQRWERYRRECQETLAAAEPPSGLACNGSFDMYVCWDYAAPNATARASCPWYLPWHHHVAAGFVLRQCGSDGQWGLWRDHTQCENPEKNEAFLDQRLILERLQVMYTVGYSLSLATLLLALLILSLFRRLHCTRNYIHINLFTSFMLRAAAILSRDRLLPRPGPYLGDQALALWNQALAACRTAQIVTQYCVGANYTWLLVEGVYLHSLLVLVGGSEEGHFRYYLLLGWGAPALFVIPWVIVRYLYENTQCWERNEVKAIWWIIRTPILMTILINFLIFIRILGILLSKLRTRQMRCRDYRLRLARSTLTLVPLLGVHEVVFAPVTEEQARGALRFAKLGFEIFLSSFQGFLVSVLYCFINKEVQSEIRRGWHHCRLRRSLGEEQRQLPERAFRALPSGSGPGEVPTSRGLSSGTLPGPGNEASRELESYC

Halo_GLP1R = target: T4, Halo_GLP1R (Homo sapiens, UniProt P43220); test: Epifluorescent microscopy of HEK293T cells transfected with Halo_GLP1R; settings: counter-labelling of Halo
T4 construct: expressed in transfected cells; host or cells: HEK293T, transient transfection with JetPrime

GLP1R = target: T5, GLP1R (Mus musculus, UniProt O35659); test: Confocal microscopy of GLP1R^SNAP/SNAP islets stained with Tirzepatide-Cy5 and SNAP labels; settings: orthogonally labelled with SNAP labels
T5 construct: from tissue; host or cells: pancreatic islets from GLP1R^SNAP/SNAP animals
T5 sequence (O35659 22-463): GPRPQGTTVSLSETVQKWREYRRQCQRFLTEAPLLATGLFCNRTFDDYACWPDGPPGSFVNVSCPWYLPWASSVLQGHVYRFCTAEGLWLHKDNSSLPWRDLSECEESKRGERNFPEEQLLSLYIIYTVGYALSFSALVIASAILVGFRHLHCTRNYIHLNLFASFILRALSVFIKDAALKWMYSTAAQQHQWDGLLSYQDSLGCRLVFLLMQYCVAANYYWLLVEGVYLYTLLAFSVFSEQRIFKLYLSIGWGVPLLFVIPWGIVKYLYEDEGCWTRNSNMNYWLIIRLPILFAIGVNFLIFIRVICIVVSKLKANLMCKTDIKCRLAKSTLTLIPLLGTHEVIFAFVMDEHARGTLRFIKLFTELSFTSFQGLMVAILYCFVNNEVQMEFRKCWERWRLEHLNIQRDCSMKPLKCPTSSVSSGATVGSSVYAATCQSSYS

Compound	labelling of beta cells in Mip-Cre and Gipr-/-βcell islets (GIPR [1])	labelling of GIPR+ cells and GIPR+ GLP1R+ cells in islets (endogenous GIPR)	internalization in live islets of Langerhans (endogenous GIPR; FIG. 8 third row, zoom-in, confocal imaging with LUX645)	labelling of endogenous GIPR in islets (endogenous GIPR)	labelling of GIPR-GCAMP3 reporter islets, co-localization with GCAMP3+ cells (GIPR [2])	co-localization with SNAP-GIPR (SNAP-GIPR)	co-localization with Halo_GLP1R (Halo_GLP1R)	labelling of islets, overlap with SNAP-labelled GLP1R (GLP1R)
Y[Aib]EGTFISDYSIAMDKIRQQDFVNWLLAQRGKKSDWKHNITQGGC(X1)-NH2 [sGIP549]	labels beta cells, identified using LUX645, in Mip-Cre but not Gipr^−/−βcell islets	label GIPR+ cells	internalized structures	label endogenous GIPR	label GIPR-GCAMP3 reporter islets, showing co-localization with GCAMP3+ cells			
Y[Aib]EGTFISDYSIAMDKIRQQDFVNWLLAQRGKKSDWKHNITQGGC(X2)-NH2 [sGIP648]	labels beta cells, identified using LUX551, in Mip-Cre but not Gipr^−/−βcell islets	label GIPR+ cells		label endogenous GIPR	label GIPR-GCAMP3 reporter islets, showing co-localization with GCAMP3+ cells			
CC[C@H](C)[C@H](NC(=O)[C@H](CC(C)C)NC(=O)[C@H](Cc1c[nH]c2ccccc12)NC(=O)[C@H](CCC(N)=O)NC(=O)[C@@H](NC(=O)[C@H](Cc1ccccc1)NC(=O)[C@H](C)NC(=O)[C@H](CCCCN)NC(=O)[C@H](CCC(N)=O)NC(=O)[C@H](C)NC(=O)[C@@H](NC(=O)[C@H](CCCCN)NC(=O)[C@H](CC(=O)O)NC(=O)[C@H](CC(C)C)NC(=O)C(C)(C)NC(=O)[C@@H](NC(=O)[C@H](CO)NC(=O)[C@H](Cc1ccc(O)cc1)NC(=O)[C@H](CC(=O)O)NC(=O)[C@H](CO)NC(=O)[C@@H](NC(=O)[C@H](Cc1ccccc1)NC(=O)[C@@H](NC(=O)CNC(=O)[C@H](CCC(=O)O)NC(=O)C(C)(C)NC(=O)[C@@H](N)Cc1ccc(O)cc1)[C@@H](C)O)[C@@H](C)O)[C@@H](C)CC)[C@@H](C)CC)C(C)C)C(=O)N[C@@H](C)C(=O)NCC(=O)NCC(=O)N1CCC[C@H]1C(=O)N[C@@H](CO)C(=O)N[C@@H](CO)C(=O)NCC(=O)N[C@@H](C)C(=O)N1CCC[C@H]1C(=O)N1CCC[C@H]1C(=O)N1CCC[C@H]1C(=O)N[C@@H](CSC1CC(=O)N(CCNC(=O)CCCCCN2/C(=C/C=C/C3=[N+](C)c4ccccc4C3(C)C)C(C)(C)c3ccccc32)C1=O)C(N)=O (some centres unmarked) [Tirzepatide-Cy3] (H-Y[Aib]EGTFTSDYSI[Aib]LDKIAQKAFVQWLIAGGPSSGAPPPC(X1)-NH2)						clear co-localization	clear co-localization	
CC[C@H](C)[C@H](NC(=O)[C@H](CC(C)C)NC(=O)[C@H](Cc1c[nH]c2ccccc12)NC(=O)[C@H](CCC(N)=O)NC(=O)[C@@H](NC(=O)[C@H](Cc1ccccc1)NC(=O)[C@H](C)NC(=O)[C@H](CCCCN)NC(=O)[C@H](CCC(N)=O)NC(=O)[C@H](C)NC(=O)[C@@H](NC(=O)[C@H](CCCCN)NC(=O)[C@H](CC(=O)O)NC(=O)[C@H](CC(C)C)NC(=O)C(C)(C)NC(=O)[C@@H](NC(=O)[C@H](CO)NC(=O)[C@H](Cc1ccc(O)cc1)NC(=O)[C@H](CC(=O)O)NC(=O)[C@H](CO)NC(=O)[C@@H](NC(=O)[C@H](Cc1ccccc1)NC(=O)[C@@H](NC(=O)CNC(=O)[C@H](CCC(=O)O)NC(=O)C(C)(C)NC(=O)[C@@H](N)Cc1ccc(O)cc1)[C@@H](C)O)[C@@H](C)O)[C@@H](C)CC)[C@@H](C)CC)C(C)C)C(=O)N[C@@H](C)C(=O)NCC(=O)NCC(=O)N1CCC[C@H]1C(=O)N[C@@H](CO)C(=O)N[C@@H](CO)C(=O)NCC(=O)N[C@@H](C)C(=O)N1CCC[C@H]1C(=O)N1CCC[C@H]1C(=O)N1CCC[C@H]1C(=O)N[C@@H](CSC1CC(=O)N(CCNC(=O)CCCCCN2/C(=C/C=C/C=C/C3=[N+](C)c4ccccc4C3(C)C)C(C)(C)c3ccccc32)C1=O)C(N)=O (some centres unmarked) [Tirzepatide-Cy5] (H-Y[Aib]EGTFTSDYSI[Aib]LDKIAQKAFVQWLIAGGPSSGAPPPC(X2)-NH2)						clear co-localization	clear co-localization	labelled the islet, showing overlap with GLP1R^SNAP/SNAP
